Results reported in the supplement of paper PMC10849652.
The other results are listed elsewhere or left out.

Protein sequences, listed by entry. Tags and fused reporters are not part of them. Lines headed by an entry give the natural chain unless they say otherwise; changes in a name come on top.
UniProt Q93009, whole entry, looked up: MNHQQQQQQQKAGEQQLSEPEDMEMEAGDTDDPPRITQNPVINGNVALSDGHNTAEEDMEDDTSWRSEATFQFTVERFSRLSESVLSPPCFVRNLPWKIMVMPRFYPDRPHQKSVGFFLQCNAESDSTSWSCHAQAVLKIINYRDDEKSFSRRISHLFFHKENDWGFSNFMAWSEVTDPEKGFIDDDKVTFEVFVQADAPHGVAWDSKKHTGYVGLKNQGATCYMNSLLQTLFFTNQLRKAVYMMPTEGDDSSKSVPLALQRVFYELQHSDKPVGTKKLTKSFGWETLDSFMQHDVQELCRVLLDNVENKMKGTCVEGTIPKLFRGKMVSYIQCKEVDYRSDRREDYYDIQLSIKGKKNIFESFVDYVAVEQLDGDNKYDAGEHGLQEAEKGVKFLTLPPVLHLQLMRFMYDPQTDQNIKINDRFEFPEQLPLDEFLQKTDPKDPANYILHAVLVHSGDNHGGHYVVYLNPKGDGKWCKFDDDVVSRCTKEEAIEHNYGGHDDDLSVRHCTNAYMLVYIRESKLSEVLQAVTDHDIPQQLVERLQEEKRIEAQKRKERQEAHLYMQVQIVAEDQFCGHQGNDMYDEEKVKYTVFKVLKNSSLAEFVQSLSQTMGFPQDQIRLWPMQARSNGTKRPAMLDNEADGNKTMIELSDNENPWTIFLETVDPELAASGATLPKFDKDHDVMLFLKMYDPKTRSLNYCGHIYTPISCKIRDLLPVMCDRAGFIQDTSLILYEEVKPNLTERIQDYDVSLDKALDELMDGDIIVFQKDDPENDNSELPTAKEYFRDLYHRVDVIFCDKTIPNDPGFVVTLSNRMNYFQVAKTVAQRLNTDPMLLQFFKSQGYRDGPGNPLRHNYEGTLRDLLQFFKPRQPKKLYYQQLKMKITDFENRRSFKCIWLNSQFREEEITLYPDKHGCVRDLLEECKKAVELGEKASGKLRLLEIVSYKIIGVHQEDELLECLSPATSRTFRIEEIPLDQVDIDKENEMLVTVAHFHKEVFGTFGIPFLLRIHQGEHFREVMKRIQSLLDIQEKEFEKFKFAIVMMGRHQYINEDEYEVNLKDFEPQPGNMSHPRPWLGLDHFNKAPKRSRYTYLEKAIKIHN
UniProt Q7Z6J8: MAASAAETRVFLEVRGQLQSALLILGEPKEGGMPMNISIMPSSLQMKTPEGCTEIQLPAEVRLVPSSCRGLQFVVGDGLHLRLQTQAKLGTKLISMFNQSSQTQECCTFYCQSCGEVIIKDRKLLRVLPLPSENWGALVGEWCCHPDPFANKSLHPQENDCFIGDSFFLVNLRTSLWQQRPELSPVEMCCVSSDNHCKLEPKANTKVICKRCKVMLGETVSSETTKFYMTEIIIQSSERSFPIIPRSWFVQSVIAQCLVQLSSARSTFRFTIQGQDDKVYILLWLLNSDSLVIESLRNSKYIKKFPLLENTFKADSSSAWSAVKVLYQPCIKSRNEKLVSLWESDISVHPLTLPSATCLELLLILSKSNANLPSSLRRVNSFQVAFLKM
UniProt Q92890: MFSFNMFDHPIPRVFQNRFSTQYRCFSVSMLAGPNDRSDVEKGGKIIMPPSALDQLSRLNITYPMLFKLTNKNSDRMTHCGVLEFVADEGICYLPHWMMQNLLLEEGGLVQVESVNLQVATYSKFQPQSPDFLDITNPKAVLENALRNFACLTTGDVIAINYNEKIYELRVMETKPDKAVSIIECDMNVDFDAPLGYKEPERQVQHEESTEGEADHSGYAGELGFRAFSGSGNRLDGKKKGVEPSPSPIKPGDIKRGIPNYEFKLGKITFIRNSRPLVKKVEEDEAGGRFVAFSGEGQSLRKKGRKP
UniProt Q8IX04: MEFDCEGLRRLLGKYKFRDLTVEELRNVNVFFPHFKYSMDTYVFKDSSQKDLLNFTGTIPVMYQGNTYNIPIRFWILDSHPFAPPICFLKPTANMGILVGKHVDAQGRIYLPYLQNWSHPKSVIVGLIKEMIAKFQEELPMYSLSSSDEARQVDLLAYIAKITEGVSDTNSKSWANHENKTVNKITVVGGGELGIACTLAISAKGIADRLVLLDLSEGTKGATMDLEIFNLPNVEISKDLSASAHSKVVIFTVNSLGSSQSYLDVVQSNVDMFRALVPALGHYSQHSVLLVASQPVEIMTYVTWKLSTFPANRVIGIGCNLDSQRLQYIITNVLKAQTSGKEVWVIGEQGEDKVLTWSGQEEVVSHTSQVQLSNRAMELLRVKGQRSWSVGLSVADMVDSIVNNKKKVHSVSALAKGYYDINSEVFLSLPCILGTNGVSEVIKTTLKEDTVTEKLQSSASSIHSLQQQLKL
UniProt Q9NZI7: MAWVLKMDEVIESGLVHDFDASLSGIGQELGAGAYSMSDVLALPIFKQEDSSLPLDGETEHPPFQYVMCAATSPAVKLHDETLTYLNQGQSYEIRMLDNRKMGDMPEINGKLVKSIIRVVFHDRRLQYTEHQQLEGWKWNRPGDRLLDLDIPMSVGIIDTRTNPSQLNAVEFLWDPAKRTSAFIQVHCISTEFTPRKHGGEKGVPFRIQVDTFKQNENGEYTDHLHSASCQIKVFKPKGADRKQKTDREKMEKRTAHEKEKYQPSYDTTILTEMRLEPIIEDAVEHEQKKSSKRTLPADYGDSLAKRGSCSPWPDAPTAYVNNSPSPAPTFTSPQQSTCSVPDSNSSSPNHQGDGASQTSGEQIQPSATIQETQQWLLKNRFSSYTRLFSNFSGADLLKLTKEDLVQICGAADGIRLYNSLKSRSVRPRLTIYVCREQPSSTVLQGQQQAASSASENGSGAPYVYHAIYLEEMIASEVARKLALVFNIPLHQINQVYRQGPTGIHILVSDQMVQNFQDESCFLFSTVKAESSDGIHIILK
UniProt A6NIH7: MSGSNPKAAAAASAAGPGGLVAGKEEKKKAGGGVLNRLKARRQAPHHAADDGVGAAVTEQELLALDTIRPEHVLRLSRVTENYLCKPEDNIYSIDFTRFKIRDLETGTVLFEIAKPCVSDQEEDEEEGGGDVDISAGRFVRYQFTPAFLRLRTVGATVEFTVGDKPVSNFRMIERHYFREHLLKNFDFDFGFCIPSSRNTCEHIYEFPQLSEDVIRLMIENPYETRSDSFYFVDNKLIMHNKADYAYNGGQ
UniProt P61960, whole entry, looked up: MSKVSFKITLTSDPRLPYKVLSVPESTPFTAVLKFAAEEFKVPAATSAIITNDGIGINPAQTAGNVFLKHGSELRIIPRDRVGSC
UniProt Q8TCY9: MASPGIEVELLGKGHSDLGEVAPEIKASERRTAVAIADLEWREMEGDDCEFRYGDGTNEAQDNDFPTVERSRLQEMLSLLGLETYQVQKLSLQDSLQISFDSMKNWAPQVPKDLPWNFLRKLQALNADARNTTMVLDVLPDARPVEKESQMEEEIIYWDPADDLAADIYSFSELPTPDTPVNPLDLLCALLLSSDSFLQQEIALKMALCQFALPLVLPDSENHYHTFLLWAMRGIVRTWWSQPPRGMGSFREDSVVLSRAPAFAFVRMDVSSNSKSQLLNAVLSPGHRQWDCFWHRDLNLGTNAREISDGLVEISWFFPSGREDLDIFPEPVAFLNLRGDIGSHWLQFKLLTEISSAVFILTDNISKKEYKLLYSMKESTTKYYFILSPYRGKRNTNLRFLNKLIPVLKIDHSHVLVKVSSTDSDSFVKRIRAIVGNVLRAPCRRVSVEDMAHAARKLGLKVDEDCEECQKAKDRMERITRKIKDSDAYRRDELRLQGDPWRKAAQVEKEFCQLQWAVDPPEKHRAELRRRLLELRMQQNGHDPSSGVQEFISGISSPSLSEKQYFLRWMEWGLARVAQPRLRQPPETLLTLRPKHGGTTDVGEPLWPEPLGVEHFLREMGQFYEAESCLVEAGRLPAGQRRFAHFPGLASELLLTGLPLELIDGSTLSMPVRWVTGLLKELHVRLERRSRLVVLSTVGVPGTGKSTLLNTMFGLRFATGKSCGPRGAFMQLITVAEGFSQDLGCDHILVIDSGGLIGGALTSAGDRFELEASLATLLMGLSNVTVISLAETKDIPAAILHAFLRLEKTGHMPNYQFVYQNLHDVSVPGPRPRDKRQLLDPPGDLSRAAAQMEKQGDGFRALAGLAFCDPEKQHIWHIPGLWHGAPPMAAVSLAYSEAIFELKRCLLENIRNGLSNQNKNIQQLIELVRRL
UniProt P54578: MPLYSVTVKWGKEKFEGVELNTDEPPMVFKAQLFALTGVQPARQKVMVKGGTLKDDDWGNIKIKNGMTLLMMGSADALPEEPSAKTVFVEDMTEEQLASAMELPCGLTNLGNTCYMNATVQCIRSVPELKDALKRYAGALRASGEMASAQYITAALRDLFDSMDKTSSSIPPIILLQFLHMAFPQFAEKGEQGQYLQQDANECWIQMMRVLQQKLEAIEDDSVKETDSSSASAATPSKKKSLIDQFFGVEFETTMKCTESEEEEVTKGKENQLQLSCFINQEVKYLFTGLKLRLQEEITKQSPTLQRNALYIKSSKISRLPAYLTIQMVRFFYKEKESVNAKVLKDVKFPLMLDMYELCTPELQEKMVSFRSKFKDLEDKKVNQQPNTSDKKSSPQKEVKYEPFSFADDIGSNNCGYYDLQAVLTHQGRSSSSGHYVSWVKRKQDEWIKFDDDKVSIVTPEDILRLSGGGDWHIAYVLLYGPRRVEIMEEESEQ
UniProt Q70EL1: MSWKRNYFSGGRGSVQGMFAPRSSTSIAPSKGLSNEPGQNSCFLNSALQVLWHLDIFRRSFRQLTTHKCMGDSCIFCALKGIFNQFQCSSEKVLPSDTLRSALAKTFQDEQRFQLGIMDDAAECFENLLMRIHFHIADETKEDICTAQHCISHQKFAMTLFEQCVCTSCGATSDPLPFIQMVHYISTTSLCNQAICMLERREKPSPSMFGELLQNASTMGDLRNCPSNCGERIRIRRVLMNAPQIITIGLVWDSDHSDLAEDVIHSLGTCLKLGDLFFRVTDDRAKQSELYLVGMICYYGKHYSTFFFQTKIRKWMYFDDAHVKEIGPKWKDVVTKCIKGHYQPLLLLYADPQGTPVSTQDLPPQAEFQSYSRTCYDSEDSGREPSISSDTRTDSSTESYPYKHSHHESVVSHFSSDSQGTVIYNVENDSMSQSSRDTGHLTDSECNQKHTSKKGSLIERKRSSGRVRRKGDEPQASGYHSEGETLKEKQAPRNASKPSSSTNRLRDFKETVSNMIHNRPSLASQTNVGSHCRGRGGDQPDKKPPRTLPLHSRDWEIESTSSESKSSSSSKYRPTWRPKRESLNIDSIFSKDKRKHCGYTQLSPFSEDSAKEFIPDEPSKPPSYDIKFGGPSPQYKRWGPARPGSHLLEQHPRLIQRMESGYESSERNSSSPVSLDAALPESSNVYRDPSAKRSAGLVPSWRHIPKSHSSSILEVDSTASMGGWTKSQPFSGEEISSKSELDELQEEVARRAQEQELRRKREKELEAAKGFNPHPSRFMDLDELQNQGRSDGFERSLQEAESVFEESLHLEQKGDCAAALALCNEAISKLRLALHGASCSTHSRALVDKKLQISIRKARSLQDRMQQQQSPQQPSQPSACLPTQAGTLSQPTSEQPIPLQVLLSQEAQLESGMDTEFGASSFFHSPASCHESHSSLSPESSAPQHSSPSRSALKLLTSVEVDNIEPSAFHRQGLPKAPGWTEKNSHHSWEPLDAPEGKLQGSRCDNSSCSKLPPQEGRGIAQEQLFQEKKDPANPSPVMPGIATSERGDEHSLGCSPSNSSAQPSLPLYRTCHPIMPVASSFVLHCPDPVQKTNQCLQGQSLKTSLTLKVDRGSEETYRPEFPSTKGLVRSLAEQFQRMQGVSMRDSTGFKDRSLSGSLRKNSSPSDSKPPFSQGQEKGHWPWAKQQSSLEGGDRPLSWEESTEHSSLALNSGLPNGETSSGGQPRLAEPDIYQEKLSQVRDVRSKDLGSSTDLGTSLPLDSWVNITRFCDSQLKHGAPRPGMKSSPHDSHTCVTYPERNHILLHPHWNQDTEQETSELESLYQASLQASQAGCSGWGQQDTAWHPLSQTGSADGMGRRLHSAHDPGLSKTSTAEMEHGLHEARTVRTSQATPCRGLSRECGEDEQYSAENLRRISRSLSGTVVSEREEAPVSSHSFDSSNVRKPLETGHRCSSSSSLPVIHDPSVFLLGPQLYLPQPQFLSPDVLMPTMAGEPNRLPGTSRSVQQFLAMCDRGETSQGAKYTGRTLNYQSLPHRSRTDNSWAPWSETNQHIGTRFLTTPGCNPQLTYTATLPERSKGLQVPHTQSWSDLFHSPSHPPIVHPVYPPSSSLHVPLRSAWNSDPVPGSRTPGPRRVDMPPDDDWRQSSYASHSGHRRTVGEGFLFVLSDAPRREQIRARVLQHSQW

What was measured:
Experiment in all cases: log2 fold change, soluble protein after heating vs DMSO (PISA); higher = thermal stabilisation; K562 cells, 10 uM, 30 min; active = over 0.2 and 3.5 SD of the protein, either way, in both replicates (recomputed)
[1] = compound: COC1=CC=C(C=C1)CN2C=CC3=C2C=C(C=C3)C(=O)NO
Method in brief: (§1)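 K562 cells at 2×10^6 cells/mL were treated for 30 min with 10 μM compound, and aliquots were heated for 3 min over 48°C-58°C before pooling. Extraction used PBS with 0.5% NP-40 at 4°C, and soluble protein was the supernatant after 21,000xg for 90 min, measured by TMTpro 16plex LC-MS/MS with channel sums equalised. Thermal stability values, relative to control samples and from duplicates, are log2 fold changes.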

filanesib = compound: CON(C)C(=O)N1N=C(c2cc(F)ccc2F)S[C@@]1(CCCN)c1ccccc1 [filanesib]
Method in brief: as §1

zotarolimus = compound: CO[C@H]1C[C@@H]2CC[C@@H](C)[C@@](O)(O2)C(=O)C(=O)N2CCCC[C@H]2C(=O)O[C@H]([C@H](C)C[C@@H]2CC[C@H](n3cnnn3)[C@H](OC)C2)CC(=O)[C@H](C)/C=C(\C)[C@@H](O)[C@@H](OC)C(=O)[C@H](C)C[C@H](C)/C=C/C=C/C=C/1C [zotarolimus]
Method in brief: as §1

idasanutlin = compound: COc1cc(C(=O)O)ccc1NC(=O)[C@@H]1N[C@@H](CC(C)(C)C)[C@](C#N)(c2ccc(Cl)cc2F)[C@H]1c1cccc(Cl)c1F [idasanutlin]
Method in brief: as §1

alisertib = compound: COc1cc(Nc2ncc3c(n2)-c2ccc(Cl)cc2C(c2c(F)cccc2OC)=NC3)ccc1C(=O)O [alisertib]
Method in brief: as §1

[2] = compound: COc1cc2nc(-c3cc(F)ccc3O)nc(N[C@@H]3CNC[C@H]3C(C)(C)O)c2cc1OC
Method in brief: as §1

gefitinib = compound: COc1cc2ncnc(Nc3ccc(F)c(Cl)c3)c2cc1OCCCN1CCOCC1 [gefitinib]
Method in brief: as §1

[3] = compound: COc1cccc2cc(-c3nc([C@H]4CC[C@H](C(=O)O)CC4)n4ncnc(N)c34)[nH]c12
Method in brief: as §1

lapatinib = compound: CS(=O)(=O)CCNCc1ccc(-c2ccc3ncnc(Nc4ccc(OCc5cccc(F)c5)c(Cl)c4)c3c2)o1 [lapatinib]
Method in brief: as §1

pictilisib = compound: CS(=O)(=O)N1CCN(Cc2cc3nc(-c4cccc5[nH]ncc45)nc(N4CCOCC4)c3s2)CC1 [pictilisib]
Method in brief: as §1

[4] = compound: CS(=O)(=O)c1ccc(-c2cnc(N)c(C(=O)Nc3ccccc3)n2)cc1
Method in brief: as §1

crizotinib = compound: C[C@@H](Oc1cc(-c2cnn(C3CCNCC3)c2)cnc1N)c1c(Cl)ccc(F)c1Cl [crizotinib]
Method in brief: as §1

[5] = compound: C[C@@H]1COCCN1C2=NC(=NC(=C2)C3(CC3)S(=O)(=O)C)C4=C5C=CNC5=CC=C4
Method in brief: as §1

[6] = compound: C[C@H](C1=CC=C(C=C1)C(=O)NC2=C3C=CNC3=NC=C2)N
Method in brief: as §1

gandotinib = compound: Cc1cc(Nc2cc(CN3CCOCC3)c3nc(C)c(Cc4ccc(Cl)cc4F)n3n2)n[nH]1 [gandotinib]
Method in brief: as §1

[7] = compound: Cc1cc(SCc2sc(-c3ccc(C(F)(F)F)cc3)nc2C)ccc1OCC(=O)O
Method in brief: as §1

doramapimod = compound: Cc1ccc(-n2nc(C(C)(C)C)cc2NC(=O)Nc2ccc(OCCN3CCOCC3)c3ccccc23)cc1 [doramapimod]
Method in brief: as §1

ispinesib = compound: Cc1ccc(C(=O)N(CCCN)[C@@H](c2nc3cc(Cl)ccc3c(=O)n2Cc2ccccc2)C(C)C)cc1 [ispinesib]
Method in brief: as §1

duvelisib = compound: C[C@H](Nc1ncnc2nc[nH]c12)c1cc2cccc(Cl)c2c(=O)n1-c1ccccc1 [duvelisib]
Method in brief: as §1

tozasertib = compound: Cc1cc(Nc2cc(N3CCN(C)CC3)nc(Sc3ccc(NC(=O)C4CC4)cc3)n2)n[nH]1 [tozasertib]
Method in brief: as §1

Target | log2 fold change [1] | log2 fold change (filanesib) | log2 fold change (zotarolimus) | log2 fold change (idasanutlin) | log2 fold change (alisertib) | log2 fold change [2] | log2 fold change (gefitinib) | log2 fold change [3] | log2 fold change (lapatinib) | log2 fold change (pictilisib) | log2 fold change [4] | log2 fold change (crizotinib) | log2 fold change [5] | log2 fold change [6] | log2 fold change (gandotinib) | log2 fold change [7] | log2 fold change (doramapimod) | log2 fold change (ispinesib) | log2 fold change (duvelisib) | log2 fold change (tozasertib)
USP7 (UniProt Q93009) | inactive: 0.034 | inactive: -0.14 | inactive: -0.007 | inactive: -0.053 | inactive: 0.144 | inactive: 0.039 | inactive: 0.04 | inactive: 0.019 | inactive: -0.029 | inactive: 0.002 | inactive: 0.008 | inactive: -0.311 | inactive: 0.147 | inactive: 0.07 | inactive: -0.157 | inactive: 0.146 | inactive: -0.039 | inactive: -0.175 |  | 
UBE3D (UniProt Q7Z6J8) | inactive: -0.005 | inactive: 0.08 | inactive: -0.033 | inactive: -0.009 | inactive: -0.088 | inactive: -0.022 | inactive: 0.035 | inactive: 0.009 | inactive: -0.069 | inactive: 0.139 | inactive: 0.002 | inactive: 0.053 | inactive: 0.128 | inactive: -0.067 | inactive: -0.147 | inactive: -0.052 | inactive: -0.01 | inactive: -0.024 |  | 
UFD1 isoform 1 (UniProt Q92890) | active: 0.225 | inactive: -0.033 | inactive: -0.028 | inactive: -0.043 | inactive: -0.023 | inactive: -0.052 | inactive: -0.001 | inactive: 0.033 | inactive: 0.018 | inactive: -0.037 | inactive: -0.029 | inactive: 0.004 | inactive: -0.032 | inactive: -0.022 | inactive: -0.099 | inactive: -0.04 | inactive: 0.007 | inactive: 0.036 |  | 
UEVLD (UniProt Q8IX04) | inactive: -0.139 | inactive: -0.124 | inactive: -0.256 | inactive: -0.175 | inactive: 0.124 |  | inactive: -0.036 | inactive: 0.154 |  | inactive: -0.178 | inactive: -0.027 | inactive: -0.062 | inactive: -0.179 | inactive: -0.106 | inactive: 0.153 | inactive: -0.001 | inactive: 0.164 |  | inactive: 0.132 | inactive: 0.007
UBP1 (UniProt Q9NZI7) | inactive: -0.054 | inactive: 0.061 | inactive: -0.087 |  | inactive: 0.019 |  | inactive: 0.028 | inactive: 0.131 |  |  | inactive: 0.013 | inactive: -0.211 | inactive: -0.272 | inactive: -0.168 |  | inactive: 0.417 | inactive: 0.343 | inactive: -0.235 | inactive: 0.24 | inactive: -0.037
UNC119B (UniProt A6NIH7) | inactive: -0.232 | inactive: 0.059 | inactive: 0.074 | inactive: -0.034 | inactive: -0.185 | inactive: 0.069 | inactive: 0.116 | inactive: -0.002 | inactive: 0.06 | inactive: 0.092 | inactive: 0.026 | inactive: -0.08 |  | inactive: 0.039 | inactive: 0.034 | inactive: -0.064 | inactive: 0.263 | active: 0.527 |  | 
UFM1 (UniProt P61960) | inactive: 0.048 | inactive: -0.08 | inactive: -0.139 | inactive: 0.28 | inactive: -0.001 | inactive: 0.01 | inactive: 0.069 | inactive: 0.055 | inactive: -0.002 |  | inactive: 0.021 | inactive: 0.004 | inactive: 0.178 | inactive: -0.062 |  | inactive: -0.043 | inactive: -0.037 | inactive: 0.158 |  | 
URGCP (UniProt Q8TCY9) | inactive: -0.033 | inactive: 0.161 | inactive: 0.039 | inactive: 0.049 |  | inactive: 0.102 | inactive: -0.161 |  | inactive: 0.002 | inactive: 0.015 | inactive: 0.106 | inactive: -0.032 | inactive: 0.112 | inactive: -0.06 | inactive: -0.108 | inactive: 0.04 | inactive: 0.012 | inactive: -0.093 | inactive: 0.058 | inactive: -0.035
USP14 (UniProt P54578) | inactive: 0.023 | inactive: -0.035 | inactive: 0.04 | inactive: -0.051 | inactive: -0.057 | inactive: -0.008 | inactive: 0.007 | inactive: -0.043 | inactive: 0.031 | inactive: 0.026 | inactive: 0.006 | inactive: -0.023 | inactive: 0.082 | inactive: -0.037 | inactive: -0.078 | inactive: 0.076 | inactive: 0.002 | inactive: 0.017 |  | 
USP54 (UniProt Q70EL1) |  |  |  |  | inactive: -0.168 | inactive: 0 |  | inactive: 0.131 | inactive: 0.109 | inactive: -0.238 |  |  |  |  | inactive: -0.069 | inactive: -0.021 |  |  | inactive: -0.044 | inactive: -0.142
